Here are results for one molecule from article doi:10.1101/2025.07.15.664932.

These are yes or no findings as the source states them, for the method shown. Some results given as binding are weak or reduced against the parent protein; the word gives no strength. Tags and fused reporters may be left off the sequences shown.

In the assay the target is T1, full-length yeast Naa15/Nat1 with an N-terminal 6xHis tag (yeast) (UniProt P12945).
T1 sequence: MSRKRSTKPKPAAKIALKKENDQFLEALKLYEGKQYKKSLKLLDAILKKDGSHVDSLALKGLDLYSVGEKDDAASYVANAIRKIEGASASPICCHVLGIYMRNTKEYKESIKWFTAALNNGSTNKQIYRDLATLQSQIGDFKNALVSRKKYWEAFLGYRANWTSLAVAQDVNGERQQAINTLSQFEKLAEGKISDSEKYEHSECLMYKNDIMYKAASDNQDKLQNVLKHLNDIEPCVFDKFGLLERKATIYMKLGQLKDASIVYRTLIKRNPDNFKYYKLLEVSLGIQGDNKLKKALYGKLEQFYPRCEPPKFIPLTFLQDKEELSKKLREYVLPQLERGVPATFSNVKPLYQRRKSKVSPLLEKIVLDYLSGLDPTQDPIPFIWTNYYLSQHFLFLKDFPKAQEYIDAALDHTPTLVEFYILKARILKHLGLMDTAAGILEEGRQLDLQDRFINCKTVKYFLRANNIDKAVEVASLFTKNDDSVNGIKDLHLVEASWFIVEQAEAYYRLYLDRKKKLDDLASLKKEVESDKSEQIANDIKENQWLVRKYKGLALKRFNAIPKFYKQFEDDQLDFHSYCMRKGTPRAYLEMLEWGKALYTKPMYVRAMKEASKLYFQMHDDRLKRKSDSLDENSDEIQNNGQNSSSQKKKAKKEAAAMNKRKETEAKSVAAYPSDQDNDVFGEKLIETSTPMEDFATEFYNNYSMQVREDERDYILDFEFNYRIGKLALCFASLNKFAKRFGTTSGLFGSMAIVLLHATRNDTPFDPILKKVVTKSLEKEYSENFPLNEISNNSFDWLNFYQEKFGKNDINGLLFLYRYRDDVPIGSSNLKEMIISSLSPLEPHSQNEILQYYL
The assay is described as follows: co-purification.

B1: yeast Naa10/Ard1 residues 1-226 (domain or fragment, UniProt P07347 1-226)
chain: MPINIRRATINDIICMQNANLHNLPENYMMKYYMYHILSWPEASFVATTTTLDCEDSDEQDENDKLELTLDGTNDGRTIKLDPTYLAPGEKLVGYVLVKMNDDPDQQNEPPNGHITSLSVMRTYRRMGIAENLMRQALFALREVHQAEYVSLHVRQSNRAALHLYRDTLAFEVLSIEKSYYQDGEDAYAMKKVLKLEELQISNFTHRRLKENEEKLEDDLESDLLE
B1: the binding entry is “binds”.
